At least one structure is not confirmed: it was looked up by name or label, or the drawing left a doubt.
System: cardiac NO production
Experiment: ESR detection of nitric oxide in Langendorff perfused heart homogenates
Set-up: species or system mouse
Settings: agent prior to netrin-1, I/R; vs. untreated I/R controls
Method: Langendorff perfusion: The mice were anesthetized with intraperitoneal pentobarbitone (60 mg/kg). Hearts were harvested and rapidly transferred into ice-cold Krebs-Henseleit buffer (KHB). […] NaCl118.0, KCl 4.7, CaCl2 2.5, MgSO4 1.2, KH2PO4 1.2, NaHCO3 25.0, D-Glucose 10 at constant pressure (80±1 mmHg) using a peristaltic pump and feedback system. For no I/R setting, hearts were perfused with KHB or netrin-1 for 120 min. […] These experimental protocols are illustrated in FIG. 7. Electron spin resonance detection of nitric oxide radical: Bioavailable nitric oxide radical (NO) from cells or tissues was detected using electron spin resonance (ESR) as described. See Nguyen et al. (2006) PNAS USA 103:6530-5; and Youn et al. (2009) Circ. Res 104:50-59, which are herein incorporated by reference. […] Gently collected homogenates or cell suspensions were snap-frozen in liquid nitrogen and loaded into a finger Dewar for analysis with an eScan electron spin resonance (ESR) spectrophotometer (Bruker, Freemont, Calif.) at the following settings: center field, 3410; field sweep, 100 G; microwave frequency, 9.73 GHz; microwave power, 13.26 mW; modulation amplitude, 9.82 G; 512 points resolution and receiver gain, 356.

## O=c1cc(N2CCOCC2)oc2c(-c3ccccc3)cccc12 [LY294002]
  Netrin-1 stimulated NO production in hearts pre-perfused with the agent: failed to reduced

Source: US9050298B2, “Method of treating ischemia/reperfusion injuries to a heart with netrin-1” (The Regents of the University of California, priority 2010, dated 2015)
